The values below are quoted from earlier work in paper PMC9583845, “Characterization of the chicken melanocortin 5 receptor and its potential role in regulating hepatic glucolipid metabolism” (Frontiers in Physiology, 2022).

For this data set the following is noted: endogenous, cited from earlier work; for concentration of plasma ACTH: 2022.
The mark [1] stands for this setting: 4–6 days chicks, two-site sequential chemiluminescent immunometric assay, ref Gaston et al., 2017.

Like-named read-outs stand apart in the source and are kept apart here.

On to “H-SYSMEHFRWGKPVGRKRRPIKVYPNGVDEESAESYPMEF-OH [ACTH1-39]”, for which, under setting [1], the “ACTH in the plasma” value is given as “about 10 pg/ml” and the “ACTH in the plasma (molar)” value was around 2.2 pmol/L. In addition, the “concentration of plasma ACTH” value (hatched chicks, ref Okur et al.) is reported as “about 12 pg/ml”. In addition, for the setting “three-week-old male chicks, ref Liu et al.”, the “concentration of plasma ACTH” value was 7 to 18 pg/mL.
